Results are given in words; binding and its absence hold for the method and conditions named. In cells and extracts the contact can be indirect. Some entries that bind do so weakly or less than the wild type.
Biological target: PTEN (human (endogenous in MOLT-4)) (UniProt P60484)
Assay: co-IP; MOLT-4 lysate in RIPA buffer (50 mM Tris-HCl pH 7.5, 150 mM NaCl, 1% NP-40, 1 mM EDTA, 0.25% sodium deoxycholate); 1 ug antibody (anti-PTEN or anti-TRIM37; IgG as negative control) overnight at 4°C, protein A/G Plus-agarose, five washes with RIPA, Western blot

By UniProt entry, the sequences of proteins in these tests, tags left out.
UniProt P60484: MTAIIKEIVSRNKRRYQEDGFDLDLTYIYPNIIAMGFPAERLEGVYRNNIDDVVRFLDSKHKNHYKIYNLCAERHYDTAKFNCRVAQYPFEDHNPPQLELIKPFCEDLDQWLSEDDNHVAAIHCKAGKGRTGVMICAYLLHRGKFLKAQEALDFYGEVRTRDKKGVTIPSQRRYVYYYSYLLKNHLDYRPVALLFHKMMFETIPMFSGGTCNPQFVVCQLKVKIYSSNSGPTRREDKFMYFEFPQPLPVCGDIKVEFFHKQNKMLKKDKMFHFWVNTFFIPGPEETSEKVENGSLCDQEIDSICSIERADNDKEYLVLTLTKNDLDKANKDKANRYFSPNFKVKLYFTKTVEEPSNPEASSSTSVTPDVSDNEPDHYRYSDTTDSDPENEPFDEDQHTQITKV
UniProt O94972: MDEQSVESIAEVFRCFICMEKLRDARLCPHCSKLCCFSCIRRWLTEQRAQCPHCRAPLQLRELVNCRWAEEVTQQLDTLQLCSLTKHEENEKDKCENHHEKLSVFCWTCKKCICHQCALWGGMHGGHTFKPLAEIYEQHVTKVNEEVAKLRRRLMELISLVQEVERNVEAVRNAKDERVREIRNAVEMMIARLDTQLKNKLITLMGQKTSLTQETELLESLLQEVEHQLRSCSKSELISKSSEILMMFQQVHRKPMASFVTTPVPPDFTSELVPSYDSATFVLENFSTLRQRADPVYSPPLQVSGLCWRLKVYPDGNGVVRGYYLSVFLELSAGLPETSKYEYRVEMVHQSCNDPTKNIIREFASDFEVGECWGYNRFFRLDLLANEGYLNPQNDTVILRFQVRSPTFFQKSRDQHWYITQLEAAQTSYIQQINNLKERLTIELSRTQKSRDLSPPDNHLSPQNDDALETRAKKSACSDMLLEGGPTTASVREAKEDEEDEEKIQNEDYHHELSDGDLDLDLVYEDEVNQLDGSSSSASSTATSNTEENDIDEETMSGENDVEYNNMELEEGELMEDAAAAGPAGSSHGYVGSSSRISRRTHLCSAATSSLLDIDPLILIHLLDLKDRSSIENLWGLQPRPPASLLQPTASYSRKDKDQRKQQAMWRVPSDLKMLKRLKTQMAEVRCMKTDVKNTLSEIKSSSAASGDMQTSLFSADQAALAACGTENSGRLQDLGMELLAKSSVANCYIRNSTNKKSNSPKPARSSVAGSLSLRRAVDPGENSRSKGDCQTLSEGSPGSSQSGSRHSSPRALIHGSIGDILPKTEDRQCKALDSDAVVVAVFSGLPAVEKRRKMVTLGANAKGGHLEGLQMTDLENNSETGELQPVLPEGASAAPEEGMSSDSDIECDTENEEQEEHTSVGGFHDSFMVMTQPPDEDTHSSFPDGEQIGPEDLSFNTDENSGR

binding: binds
Substance: TRIM37 (from UniProt O94972 1-964)

Reference: PMC10009101
